Measured values reported in paper PMC8257592.
These are yes or no findings as the source states them, for the method shown. Binding seen in cells or lysates may run through a third protein. Some binding calls cover weakened binding; strength is not graded here.

Chains of the proteins cited; added tags and fusions are not shown. Residues count along the entry.
UniProt Q14764: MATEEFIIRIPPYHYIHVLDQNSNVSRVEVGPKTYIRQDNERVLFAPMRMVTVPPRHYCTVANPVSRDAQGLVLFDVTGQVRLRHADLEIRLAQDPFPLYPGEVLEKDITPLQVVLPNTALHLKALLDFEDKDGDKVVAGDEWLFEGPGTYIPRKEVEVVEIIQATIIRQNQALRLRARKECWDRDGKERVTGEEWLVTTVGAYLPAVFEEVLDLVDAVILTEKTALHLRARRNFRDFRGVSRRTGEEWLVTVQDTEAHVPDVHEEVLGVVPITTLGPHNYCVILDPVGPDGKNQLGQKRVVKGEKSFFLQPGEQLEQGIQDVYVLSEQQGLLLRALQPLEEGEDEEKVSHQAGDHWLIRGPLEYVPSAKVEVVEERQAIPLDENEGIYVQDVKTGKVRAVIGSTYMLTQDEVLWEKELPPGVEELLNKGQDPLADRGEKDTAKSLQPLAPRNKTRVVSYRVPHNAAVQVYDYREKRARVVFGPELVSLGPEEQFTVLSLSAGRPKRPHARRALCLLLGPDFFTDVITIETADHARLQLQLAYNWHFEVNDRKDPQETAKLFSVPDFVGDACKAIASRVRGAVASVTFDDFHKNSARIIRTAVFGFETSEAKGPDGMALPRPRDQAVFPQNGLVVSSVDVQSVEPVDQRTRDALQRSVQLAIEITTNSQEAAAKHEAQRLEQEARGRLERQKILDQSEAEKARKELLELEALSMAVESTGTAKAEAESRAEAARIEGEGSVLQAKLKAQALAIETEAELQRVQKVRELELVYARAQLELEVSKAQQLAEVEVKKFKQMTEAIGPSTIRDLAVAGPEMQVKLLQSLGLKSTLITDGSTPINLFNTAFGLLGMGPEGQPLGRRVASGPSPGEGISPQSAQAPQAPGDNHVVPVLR
UniProt P08151: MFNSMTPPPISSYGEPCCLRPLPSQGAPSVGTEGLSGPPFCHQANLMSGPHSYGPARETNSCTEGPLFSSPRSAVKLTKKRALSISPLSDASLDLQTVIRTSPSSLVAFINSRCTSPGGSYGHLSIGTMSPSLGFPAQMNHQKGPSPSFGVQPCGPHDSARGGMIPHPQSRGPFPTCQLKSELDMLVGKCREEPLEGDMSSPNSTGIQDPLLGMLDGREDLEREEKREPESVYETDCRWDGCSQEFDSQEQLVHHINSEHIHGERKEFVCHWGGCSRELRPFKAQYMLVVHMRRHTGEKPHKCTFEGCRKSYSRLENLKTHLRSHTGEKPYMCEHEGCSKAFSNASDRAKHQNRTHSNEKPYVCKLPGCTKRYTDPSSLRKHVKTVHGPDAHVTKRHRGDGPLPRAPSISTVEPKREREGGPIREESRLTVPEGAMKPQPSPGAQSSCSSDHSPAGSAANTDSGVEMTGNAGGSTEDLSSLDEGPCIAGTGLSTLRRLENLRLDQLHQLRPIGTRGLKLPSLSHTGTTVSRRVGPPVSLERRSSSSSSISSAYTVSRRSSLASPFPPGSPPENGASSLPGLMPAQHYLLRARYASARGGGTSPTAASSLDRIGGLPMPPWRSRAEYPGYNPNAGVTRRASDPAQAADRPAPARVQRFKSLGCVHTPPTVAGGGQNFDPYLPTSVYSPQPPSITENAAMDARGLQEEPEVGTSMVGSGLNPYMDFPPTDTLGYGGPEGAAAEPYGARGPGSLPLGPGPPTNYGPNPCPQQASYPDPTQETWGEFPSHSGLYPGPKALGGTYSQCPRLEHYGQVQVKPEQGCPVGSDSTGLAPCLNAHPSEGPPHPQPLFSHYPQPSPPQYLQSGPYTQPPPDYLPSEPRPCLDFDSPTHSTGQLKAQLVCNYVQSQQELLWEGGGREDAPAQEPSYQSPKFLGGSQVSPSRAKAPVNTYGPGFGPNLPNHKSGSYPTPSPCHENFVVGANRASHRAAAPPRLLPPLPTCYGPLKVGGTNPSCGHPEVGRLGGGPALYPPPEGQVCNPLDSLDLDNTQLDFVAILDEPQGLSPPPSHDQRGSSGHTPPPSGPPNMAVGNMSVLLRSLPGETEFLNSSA
UniProt P23443: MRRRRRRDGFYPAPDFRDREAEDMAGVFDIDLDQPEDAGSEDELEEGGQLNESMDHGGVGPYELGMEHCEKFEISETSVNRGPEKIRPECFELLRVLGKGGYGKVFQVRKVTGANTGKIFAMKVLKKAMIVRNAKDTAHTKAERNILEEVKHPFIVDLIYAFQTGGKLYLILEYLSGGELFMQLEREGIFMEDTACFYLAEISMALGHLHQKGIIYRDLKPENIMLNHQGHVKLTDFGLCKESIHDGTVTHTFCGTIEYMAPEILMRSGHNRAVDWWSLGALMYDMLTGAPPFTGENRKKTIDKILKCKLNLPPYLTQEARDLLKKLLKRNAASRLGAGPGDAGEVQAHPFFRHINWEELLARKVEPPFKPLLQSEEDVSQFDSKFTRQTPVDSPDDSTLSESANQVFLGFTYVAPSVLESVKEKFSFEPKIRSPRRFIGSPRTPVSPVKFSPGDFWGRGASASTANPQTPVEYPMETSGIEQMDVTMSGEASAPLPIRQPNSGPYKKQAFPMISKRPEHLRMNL
UniProt P10809, residues 27-573: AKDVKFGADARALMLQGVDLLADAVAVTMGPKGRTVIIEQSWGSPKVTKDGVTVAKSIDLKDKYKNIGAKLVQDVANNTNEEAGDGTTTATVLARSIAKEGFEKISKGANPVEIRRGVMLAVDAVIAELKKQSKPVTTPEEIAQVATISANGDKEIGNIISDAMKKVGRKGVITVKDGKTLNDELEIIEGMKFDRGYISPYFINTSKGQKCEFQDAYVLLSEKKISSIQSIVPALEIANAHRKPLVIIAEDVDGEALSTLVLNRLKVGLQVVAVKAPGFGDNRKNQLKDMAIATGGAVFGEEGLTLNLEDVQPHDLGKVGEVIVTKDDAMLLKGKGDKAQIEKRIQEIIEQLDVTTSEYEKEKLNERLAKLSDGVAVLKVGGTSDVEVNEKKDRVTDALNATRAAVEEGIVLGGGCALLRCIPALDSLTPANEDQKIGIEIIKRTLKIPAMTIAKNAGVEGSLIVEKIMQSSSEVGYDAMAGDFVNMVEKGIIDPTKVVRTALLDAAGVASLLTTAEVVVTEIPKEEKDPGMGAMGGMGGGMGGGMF
UniProt Q05639: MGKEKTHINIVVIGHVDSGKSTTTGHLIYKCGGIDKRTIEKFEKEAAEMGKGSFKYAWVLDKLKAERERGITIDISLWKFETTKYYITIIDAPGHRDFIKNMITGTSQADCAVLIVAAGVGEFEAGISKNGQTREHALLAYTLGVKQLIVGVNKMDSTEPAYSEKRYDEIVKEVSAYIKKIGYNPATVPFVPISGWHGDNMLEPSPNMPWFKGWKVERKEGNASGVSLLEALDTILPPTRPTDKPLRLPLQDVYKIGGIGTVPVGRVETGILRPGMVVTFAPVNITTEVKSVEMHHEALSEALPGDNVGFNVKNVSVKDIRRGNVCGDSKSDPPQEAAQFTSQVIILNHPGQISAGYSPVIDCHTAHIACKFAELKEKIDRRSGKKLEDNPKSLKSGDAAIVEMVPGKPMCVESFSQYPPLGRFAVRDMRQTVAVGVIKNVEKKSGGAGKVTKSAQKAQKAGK

Experiments:
[1] = target: GFP tagged human full-length MVP (human) (UniProt Q14764); assay: co-IP; HEK-293T transiently transfected with Flag-GLI1 or Flag-tagged GLI1 truncations together with GFP-MVP, lysed 48 h after transfection; IP with Flag or GFP antibody, western blot
[2] = target: Flag-tagged GLI1 (HEK-293T) (human) (UniProt P08151); assay: as above
[3] = target: GLI1 (endogenous) (human (endogenous in SW1353 and HCS2/8)) (UniProt P08151); assay: co-IP; endogenous proteins in whole-cell lysates of chondrosarcoma cells (SW1353, HCS2/8); primary antibody overnight at 4 °C, protein A/G PLUS-agarose, western blot; IgG control
[4] = target: 3xFlag tagged human full-length GLI1 (stable in SW1353) (human) (UniProt P08151); assay: co-IP; SW1353 cells stably over-expressing Flag-tagged GLI1, IP with Flag antibody, western blot; with knock-down of MVP or over-expression of MVP
[5] = target: major vault protein (endogenous) (human (endogenous in SW1353 and HCS2/8)) (UniProt Q14764); assay: co-IP; endogenous proteins in whole-cell lysates of chondrosarcoma cells (SW1353, HCS2/8); primary antibody overnight at 4 °C, protein A/G PLUS-agarose, western blot; IgG control

With “Flag-tagged GLI1 (HEK-293T) (from UniProt P08151 1-1106)” as the substance, how does the binding [1] read?
The binding was “binds”.

“p70S6K1 (endogenous, HEK-293T) (from UniProt P23443 1-525)” was tested. Which binding [1] did it give?
Its binding is “binds”.

And the binding [2]?
The binding was “binds”.

Which binding [3] does the source give for HSP60 (from UniProt P10809 27-573) here?
The binding was “binds”.

Which binding [3] does the source give for “major vault protein (endogenous) (from UniProt Q14764 1-893)” here?
The binding was “binds”.

What about the binding [4] of the same substance?
Its binding is “binds”.

With “p70S6K1 (endogenous, SW1353) (from UniProt P23443 1-525)” as the substance, how does the binding [5] read?
The binding was “binds”.

With eEF1A2 (from UniProt Q05639 1-463) as the substance, how does the binding [3] read?
The binding was “binds”.

“GFP tagged human full-length MVP (from UniProt Q14764 1-893)” was tested. Which binding [2] did it give?
The binding was “binds”.

Which binding [5] does the source give for “GLI1 (endogenous) (from UniProt P08151 1-1106)” here?
The binding was “binds”.
